From US6384188B1, “Lipopolysaccharide-binding and neutralizing peptides” (Dana-Farber Cancer Institute, Inc., priority 1993, dated 2002)
For part of these data: Part of at least one peptide drawing is inferred or uncertain, most often the ends. Some results were stated once for a whole list of compounds, not compound by compound. Bridge positions count the residues as written; N and C are the ends. Peptide text beside a SMILES is read from it. * marks the point of attachment. Biotin = O=C1N[C@H]2[C@H](CS[C@H]2CCCCC(=O)*)N1

Columns and labels:
[1] = ELISA binding of biotinylated peptides to immobilized lipid A; conditions: for binding to lipid A as determined by ELISA: general description
[2] = Influence of serum on peptide-lipid A binding (ELISA); conditions: serum 1% and 10% versus buffer or medium; FIG. 17
[3] = test system: LALF binding to immobilized lipid A; test: Competition of LALF:lipid A binding by peptides (ELISA); conditions: at 100 μg/ml peptide; FIG. 14
Method: To investigate the specificity of peptides in binding lipid A and LPS, competition experiments with known endotoxin binding proteins such as LALF and LBP and the antibiotic polymyxin B are carried out. Thus an ELISA plate (NUNC, Polysorp 96U) is coated for 90 min. at 37° C. with 100 μl lipid A in PBS (0.25-0.3 μg/ml) or lipopolysaccharide in PBS (0.25-0.3 μg/ml). All further steps are done at room temperature. After washing and blocking (10 min.) with PBS/0.1% Tween, the solid phase is incubated for 1 hr with 100 μl or increasing amounts (0.01 μg/ml-100 μg/ml in PBS/0.1% Tween) of unlabelled or biotin-labelled peptides mixed with an endotoxin binding protein (LALF or LBP; 0.2 μg/ml in PBS/0.1% Tween). After washing with PBS/0.1% Tween, the ELISA plate is incubated for 45 min. with 100 μl of a rabbit antiserum against LALF or LBP, respectively. After washing with PBS/0.1% Tween the ELISA plate is incubated with 100 μl anti-rabbit antibody conjugated to alkaline phosphatase (SIGMA; 1:10000 diluted in PBS/0.1% Tween) and washed with PBS/0.1% Tween and 100 mM Tris pH 9.5. p-Nitrophenyl-phosphate (2 mg/ml in 100 mM Tris pH 9.5) is used as a substrate for alkaline phosphatase. The ELISA is read at 405 nm.

[4] = Chromogenic Limulus amebocyte lysate test; assay type: biochemical, E. coli; conditions: peptides 0.1-10 μg/ml preincubated with LPS 15 min at 37° C.; FIG. 19
Method: The Limulus amebocyte Lysate test (gelling assay; sensitivity 0.125 EU/ml) and the Chromogenic Limulus amebocyte Lysate test (sensitivity 0.06 EU/ml) are performed according to the manufacturer's instruction (Bio*Whittaker, Walkersville, Md.) using E. coli 055:B5 lipopolysaccharide. For neutralisation of LPS, peptides (0.1-10 μg/ml) and LPS are incubated for 15 min. at 37° C. and then added to the Limulus lysate. […] The chromogenic assay allows quantification of the lipopolysaccharide neutralizing capacity of the peptides.

CC(C)C[C@@H]1NC(=O)[C@H](CCCNC(=N)N)NC(=O)[C@H](CCCNC(=N)N)NC(=O)[C@H](Cc2ccccc2)NC(=O)[C@H]([C@@H](C)O)NC(=O)[C@@H](NC(=O)CCCC[C@@H]2SC[C@@H]3NC(=O)N[C@@H]32)CSSC[C@@H](C(=O)O)NC(=O)[C@H](CCCCN)NC(=O)[C@H](Cc2c[nH]c3ccccc23)NC(=O)[C@H](CCCCN)NC1=O [LALF-10] (Biotin-CTFRRLKWKC-OH; disulfide 1-10)
lipid A-binding activity (ELISA) ([1]; biotinylated peptide 0.1-10 μg/ml on immobilized lipid A, FIG. 8, 9): bind lipid A with high activity
binding to lipid A as determined by ELISA [1]: bind lipid A
influence of serum on lipid A binding activity [2]: the lipid A binding activity decreases with increasing serum concentration, but the peptides are still able to bind lipid A at 10% serum

CC[C@H](C)[C@@H]1NC(=O)[C@H](CCCNC(=N)N)NC(=O)[C@H](Cc2ccc(O)cc2)NC(=O)[C@H](Cc2c[nH]cn2)NC(=O)[C@@H](N)CSSC[C@@H](C(=O)O)NC(=O)[C@H](Cc2c[nH]c3ccccc23)NC(=O)[C@H](Cc2ccccc2)NC(=O)[C@H](CCCCN)NC(=O)CNC(=O)[C@H](CCCCN)NC(=O)[C@H](Cc2ccc(O)cc2)NC(=O)[C@H](CCCCN)NC(=O)[C@H](Cc2c[nH]c3ccccc23)NC(=O)[C@H](CCCCN)NC(=O)[C@H](CC(C)C)NC(=O)[C@H](CCCNC(=N)N)NC(=O)[C@H](CCCNC(=N)N)NC(=O)[C@H](Cc2ccccc2)NC(=O)[C@H]([C@@H](C)O)NC(=O)[C@@H]2CCCN2C(=O)[C@H](CCCCN)NC1=O [amino acids 31 to 52 of LALF] (H-CHYRIKPTFRRLKWKYKGKFWC-OH; disulfide 1-22; N-terminus and C-terminus assumed)
binding to lipid A as determined by ELISA [1]: bind lipid A

polymyxin B
competition with LALF for lipid A binding [3]: up to 95%
inhibition of the chromogenic Limulus amebocyte lysate assay [4]: up to 95%
